# Laboratory results reported in the supplement of paper PMC10849652.
# Protein sequences, listed by entry. Tags and fused reporters are not part of them. Lines headed by an entry give the natural chain unless they say otherwise; changes in a name come on top.
# UniProt Q6IBS0: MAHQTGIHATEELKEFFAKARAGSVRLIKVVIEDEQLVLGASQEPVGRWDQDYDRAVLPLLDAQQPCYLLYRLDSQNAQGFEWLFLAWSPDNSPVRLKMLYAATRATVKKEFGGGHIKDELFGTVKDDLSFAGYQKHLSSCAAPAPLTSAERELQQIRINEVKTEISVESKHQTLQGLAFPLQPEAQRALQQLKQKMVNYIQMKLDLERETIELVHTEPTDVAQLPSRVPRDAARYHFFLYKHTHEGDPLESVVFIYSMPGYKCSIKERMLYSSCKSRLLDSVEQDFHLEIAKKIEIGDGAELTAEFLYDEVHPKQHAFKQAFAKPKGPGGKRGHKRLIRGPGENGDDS
# UniProt P04818: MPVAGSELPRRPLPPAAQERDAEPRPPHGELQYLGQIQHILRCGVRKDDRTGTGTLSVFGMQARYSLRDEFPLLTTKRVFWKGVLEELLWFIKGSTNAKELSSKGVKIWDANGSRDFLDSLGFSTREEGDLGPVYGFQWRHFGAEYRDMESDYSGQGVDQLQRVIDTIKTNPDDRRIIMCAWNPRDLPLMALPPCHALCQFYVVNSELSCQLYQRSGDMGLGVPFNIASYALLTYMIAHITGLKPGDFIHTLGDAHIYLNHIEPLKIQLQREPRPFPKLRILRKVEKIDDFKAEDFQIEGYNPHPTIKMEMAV
# UniProt P62253: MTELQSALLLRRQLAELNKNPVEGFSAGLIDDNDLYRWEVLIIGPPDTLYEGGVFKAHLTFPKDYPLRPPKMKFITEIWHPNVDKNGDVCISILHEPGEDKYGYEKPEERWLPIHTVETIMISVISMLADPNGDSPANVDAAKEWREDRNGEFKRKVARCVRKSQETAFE
# UniProt Q15819: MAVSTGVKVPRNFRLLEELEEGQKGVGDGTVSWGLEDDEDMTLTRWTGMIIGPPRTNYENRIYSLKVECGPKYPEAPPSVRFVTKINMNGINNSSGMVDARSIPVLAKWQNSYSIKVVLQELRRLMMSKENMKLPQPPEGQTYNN
# UniProt P61086: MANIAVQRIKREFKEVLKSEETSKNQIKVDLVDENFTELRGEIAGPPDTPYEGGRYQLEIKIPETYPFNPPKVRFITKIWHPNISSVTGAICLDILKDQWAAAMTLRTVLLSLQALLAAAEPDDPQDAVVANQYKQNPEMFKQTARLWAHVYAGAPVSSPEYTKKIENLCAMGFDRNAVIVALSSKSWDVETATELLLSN
# UniProt Q9H4B7, whole entry, looked up: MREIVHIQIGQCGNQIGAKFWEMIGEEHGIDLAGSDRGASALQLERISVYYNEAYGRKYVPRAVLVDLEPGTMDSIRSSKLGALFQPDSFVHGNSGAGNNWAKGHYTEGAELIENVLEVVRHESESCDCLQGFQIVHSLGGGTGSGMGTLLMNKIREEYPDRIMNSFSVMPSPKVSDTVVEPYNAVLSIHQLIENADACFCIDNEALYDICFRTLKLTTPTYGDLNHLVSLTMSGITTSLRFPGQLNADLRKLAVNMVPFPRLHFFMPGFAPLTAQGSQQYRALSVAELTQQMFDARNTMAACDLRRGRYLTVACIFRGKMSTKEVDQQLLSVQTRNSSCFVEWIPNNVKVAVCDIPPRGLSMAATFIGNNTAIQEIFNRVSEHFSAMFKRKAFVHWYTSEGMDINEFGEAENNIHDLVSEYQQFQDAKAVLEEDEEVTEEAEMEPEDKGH
# UniProt Q9H832: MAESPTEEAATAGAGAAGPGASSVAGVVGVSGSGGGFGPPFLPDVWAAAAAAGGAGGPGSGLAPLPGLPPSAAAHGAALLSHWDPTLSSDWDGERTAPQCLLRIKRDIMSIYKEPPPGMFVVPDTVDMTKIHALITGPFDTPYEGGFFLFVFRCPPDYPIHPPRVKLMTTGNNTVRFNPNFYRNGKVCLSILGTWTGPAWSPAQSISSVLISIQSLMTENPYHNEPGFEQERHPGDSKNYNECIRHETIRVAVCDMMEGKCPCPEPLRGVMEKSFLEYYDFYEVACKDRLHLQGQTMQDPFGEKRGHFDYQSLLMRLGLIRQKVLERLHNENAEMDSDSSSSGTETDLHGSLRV
# UniProt Q14157: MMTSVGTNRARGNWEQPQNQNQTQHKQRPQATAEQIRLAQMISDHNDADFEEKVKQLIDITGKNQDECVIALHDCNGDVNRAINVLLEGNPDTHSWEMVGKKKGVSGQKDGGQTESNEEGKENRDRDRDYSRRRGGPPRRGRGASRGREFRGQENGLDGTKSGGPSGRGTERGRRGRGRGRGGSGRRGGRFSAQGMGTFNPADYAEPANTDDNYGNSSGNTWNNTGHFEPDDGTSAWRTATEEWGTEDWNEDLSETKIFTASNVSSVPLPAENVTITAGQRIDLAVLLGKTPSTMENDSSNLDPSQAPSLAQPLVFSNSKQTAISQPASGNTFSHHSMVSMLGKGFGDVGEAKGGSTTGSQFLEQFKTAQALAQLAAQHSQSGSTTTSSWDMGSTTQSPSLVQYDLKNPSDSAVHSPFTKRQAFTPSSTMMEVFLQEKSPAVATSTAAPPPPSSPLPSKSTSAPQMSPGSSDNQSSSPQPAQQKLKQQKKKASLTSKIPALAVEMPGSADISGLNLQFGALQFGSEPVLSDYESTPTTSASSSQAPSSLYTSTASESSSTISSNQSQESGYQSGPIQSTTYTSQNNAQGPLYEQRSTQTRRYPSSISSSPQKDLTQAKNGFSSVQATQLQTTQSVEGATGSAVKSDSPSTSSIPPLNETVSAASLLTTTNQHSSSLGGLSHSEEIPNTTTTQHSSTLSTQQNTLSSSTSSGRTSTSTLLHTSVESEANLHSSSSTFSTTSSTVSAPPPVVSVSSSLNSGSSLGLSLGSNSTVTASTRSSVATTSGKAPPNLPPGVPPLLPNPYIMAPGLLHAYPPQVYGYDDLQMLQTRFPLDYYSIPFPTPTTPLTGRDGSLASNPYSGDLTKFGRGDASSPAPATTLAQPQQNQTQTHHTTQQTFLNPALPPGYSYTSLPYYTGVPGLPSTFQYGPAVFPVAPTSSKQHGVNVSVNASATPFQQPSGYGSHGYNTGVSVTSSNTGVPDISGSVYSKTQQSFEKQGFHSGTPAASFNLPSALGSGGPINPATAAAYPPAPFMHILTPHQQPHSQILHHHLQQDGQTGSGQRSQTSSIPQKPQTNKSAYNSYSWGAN
# UniProt Q969E8: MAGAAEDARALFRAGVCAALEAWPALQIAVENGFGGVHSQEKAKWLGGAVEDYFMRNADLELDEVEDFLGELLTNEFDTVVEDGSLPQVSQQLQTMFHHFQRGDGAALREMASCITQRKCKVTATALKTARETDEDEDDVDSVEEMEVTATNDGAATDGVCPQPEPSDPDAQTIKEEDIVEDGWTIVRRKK
# UniProt Q9UNY4: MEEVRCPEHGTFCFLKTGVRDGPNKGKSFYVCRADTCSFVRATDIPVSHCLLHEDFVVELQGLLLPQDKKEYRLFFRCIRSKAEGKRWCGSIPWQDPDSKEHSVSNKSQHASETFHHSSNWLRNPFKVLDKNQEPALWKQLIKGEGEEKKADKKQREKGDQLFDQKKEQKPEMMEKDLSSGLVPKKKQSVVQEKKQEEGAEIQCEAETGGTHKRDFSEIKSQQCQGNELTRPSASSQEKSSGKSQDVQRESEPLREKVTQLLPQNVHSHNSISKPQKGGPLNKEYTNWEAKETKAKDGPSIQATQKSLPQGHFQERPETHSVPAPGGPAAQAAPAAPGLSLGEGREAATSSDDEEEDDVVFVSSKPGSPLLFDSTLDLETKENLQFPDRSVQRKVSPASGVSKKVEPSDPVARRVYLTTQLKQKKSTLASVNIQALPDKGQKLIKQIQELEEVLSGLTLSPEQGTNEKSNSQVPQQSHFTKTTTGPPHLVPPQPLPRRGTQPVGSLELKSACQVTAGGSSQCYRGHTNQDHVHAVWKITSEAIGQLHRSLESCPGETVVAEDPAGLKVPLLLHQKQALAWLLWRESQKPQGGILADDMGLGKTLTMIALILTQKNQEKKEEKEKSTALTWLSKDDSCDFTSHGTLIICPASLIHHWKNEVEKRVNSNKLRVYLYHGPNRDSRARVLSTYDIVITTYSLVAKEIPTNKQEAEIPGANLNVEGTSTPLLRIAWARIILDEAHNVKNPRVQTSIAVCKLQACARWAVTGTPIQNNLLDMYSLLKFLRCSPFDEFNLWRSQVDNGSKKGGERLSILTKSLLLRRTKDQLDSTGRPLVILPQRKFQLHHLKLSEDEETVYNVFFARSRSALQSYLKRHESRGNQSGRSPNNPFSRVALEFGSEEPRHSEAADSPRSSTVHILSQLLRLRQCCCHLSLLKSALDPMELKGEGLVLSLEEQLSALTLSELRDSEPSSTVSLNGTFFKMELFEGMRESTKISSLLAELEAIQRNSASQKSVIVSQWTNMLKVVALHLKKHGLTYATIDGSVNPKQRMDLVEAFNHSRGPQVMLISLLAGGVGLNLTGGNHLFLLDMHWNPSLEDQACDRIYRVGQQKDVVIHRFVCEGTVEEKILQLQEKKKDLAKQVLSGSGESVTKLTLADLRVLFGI
# UniProt Q13509, whole entry, looked up: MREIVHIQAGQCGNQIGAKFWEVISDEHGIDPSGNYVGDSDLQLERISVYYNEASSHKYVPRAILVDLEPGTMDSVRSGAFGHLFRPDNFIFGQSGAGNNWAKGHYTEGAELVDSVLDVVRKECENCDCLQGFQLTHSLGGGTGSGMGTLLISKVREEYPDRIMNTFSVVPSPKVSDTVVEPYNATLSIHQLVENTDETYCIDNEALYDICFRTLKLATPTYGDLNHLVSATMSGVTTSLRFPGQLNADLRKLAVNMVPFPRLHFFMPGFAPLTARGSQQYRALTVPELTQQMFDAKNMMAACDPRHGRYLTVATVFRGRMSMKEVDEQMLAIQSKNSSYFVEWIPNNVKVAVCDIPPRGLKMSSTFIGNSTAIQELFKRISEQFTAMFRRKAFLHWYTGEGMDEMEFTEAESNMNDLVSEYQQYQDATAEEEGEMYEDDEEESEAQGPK
# UniProt P61081: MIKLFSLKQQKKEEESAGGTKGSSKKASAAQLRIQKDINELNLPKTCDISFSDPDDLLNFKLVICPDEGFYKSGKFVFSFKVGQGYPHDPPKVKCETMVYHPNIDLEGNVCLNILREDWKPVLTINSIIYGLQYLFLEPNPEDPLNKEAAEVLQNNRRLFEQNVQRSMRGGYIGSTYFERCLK
# UniProt Q6PID6, whole entry, looked up: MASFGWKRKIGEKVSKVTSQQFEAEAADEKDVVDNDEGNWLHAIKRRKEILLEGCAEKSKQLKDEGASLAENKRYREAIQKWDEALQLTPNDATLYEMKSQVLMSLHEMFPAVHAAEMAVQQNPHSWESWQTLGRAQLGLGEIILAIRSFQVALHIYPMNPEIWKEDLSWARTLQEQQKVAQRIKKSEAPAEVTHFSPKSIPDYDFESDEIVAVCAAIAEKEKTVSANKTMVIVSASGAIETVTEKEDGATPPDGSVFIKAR
# UniProt Q05086: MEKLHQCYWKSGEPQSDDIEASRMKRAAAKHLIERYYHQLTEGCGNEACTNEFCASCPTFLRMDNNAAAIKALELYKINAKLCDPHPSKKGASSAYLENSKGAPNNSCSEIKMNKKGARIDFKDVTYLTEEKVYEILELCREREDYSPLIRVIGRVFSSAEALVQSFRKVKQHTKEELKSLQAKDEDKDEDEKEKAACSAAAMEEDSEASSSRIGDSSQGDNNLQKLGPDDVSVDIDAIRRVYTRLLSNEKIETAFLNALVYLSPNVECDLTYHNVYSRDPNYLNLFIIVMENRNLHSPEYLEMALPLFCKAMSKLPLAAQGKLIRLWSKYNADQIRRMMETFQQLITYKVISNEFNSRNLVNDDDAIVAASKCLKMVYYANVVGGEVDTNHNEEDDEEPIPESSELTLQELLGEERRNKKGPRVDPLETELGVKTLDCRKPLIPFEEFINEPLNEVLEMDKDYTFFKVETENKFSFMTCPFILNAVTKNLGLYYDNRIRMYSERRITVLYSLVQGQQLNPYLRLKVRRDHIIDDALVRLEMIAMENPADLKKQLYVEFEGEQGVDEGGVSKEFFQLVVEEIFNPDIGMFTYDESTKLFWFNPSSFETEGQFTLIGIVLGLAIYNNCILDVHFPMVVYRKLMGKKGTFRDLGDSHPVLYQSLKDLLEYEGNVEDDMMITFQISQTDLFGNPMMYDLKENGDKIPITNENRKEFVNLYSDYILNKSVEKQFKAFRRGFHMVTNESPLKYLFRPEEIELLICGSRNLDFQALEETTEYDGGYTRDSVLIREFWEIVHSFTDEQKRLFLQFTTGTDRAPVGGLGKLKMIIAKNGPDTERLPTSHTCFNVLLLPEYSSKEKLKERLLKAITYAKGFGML
# UniProt Q9UJK0: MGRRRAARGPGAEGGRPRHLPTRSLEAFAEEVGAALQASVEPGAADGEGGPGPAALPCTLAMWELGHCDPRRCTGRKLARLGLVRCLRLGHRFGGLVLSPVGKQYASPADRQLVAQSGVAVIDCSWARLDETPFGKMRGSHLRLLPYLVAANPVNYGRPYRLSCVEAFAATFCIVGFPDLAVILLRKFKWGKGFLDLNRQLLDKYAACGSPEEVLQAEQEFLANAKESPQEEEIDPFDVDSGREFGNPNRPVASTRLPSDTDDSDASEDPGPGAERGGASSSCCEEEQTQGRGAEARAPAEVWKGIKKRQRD
# The list shows a part of the results.
# Experiments:
# Assay in all cases: log2 fold change, soluble protein after heating vs DMSO (PISA); higher = thermal stabilisation; K562 cells, 10 uM, 30 min; active = over 0.2 and 3.5 SD of the protein, either way, in both replicates (recomputed)
# [1] = compound: NC(=O)Nc1cc(-c2cccc(F)c2)sc1C(=O)N[C@H]1CCCNC1
# Outline: (§1)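 K562 cells at 2×10^6 cells/mL were exposed to 10 μM compound for 30 min, then aliquots were heated for 3 min across 48°C-58°C, pooled, and extracted in PBS containing 0.5% NP-40 at 4°C. The supernatant after 21,000xg for 90 min was taken as soluble protein and measured by TMTpro 16plex LC-MS/MS with channel sums equalised. Thermal stability is reported relative to control samples, with values from duplicates. Fold changes are given on a log2 scale.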
# [2] = compound: NC(=O)c1cnc(N[C@@H]2CCCC[C@@H]2N)nc1Nc1cccc(-n2nccn2)c1
# Outline: as §1
# [3] = compound: NC1(c2ccc(-c3nc4ccn5c(=O)[nH]nc5c4cc3-c3ccccc3)cc2)CCC1
# Outline: as §1
# [4] = compound: NCC(=O)Nc1ccc(-n2nc(C(F)(F)F)cc2-c2ccc3c(ccc4ccccc43)c2)cc1
# Outline: as §1
# [5] = compound: Nc1ccccc1NC(=O)c1ccc(CNC(=O)OCc2cccnc2)cc1 [entinostat]
# Outline: as §1
# [6] = compound: O=C(CCCCCCC(=O)Nc1ccccc1)NO [vorinostat]
# Outline: as §1
# [7] = compound: O=C(CCCCCCNC(=O)c1cnc(N(c2ccccc2)c2ccccc2Cl)nc1)NO [citarinostat]
# Outline: as §1
# [8] = compound: O=C(O)c1ccc2c(c1)nc(Nc1cccc(Cl)c1)c1ccncc12 [silmitasertib]
# Outline: as §1
# [9] = compound: O=C1NC(=O)C(c2cnc3ccccn23)=C1c1cn2c3c(cc(F)cc13)CN(C(=O)N1CCCCC1)CC2
# Outline: as §1
# [10] = compound: c1cc(OCCN2CCCCC2)cc(-c2n[nH]c3ccc(-c4nnc[nH]4)cc23)c1
# Outline: as §1
Target,log2 fold change [1],log2 fold change [2],log2 fold change [3],log2 fold change [4],log2 fold change [5],log2 fold change [6],log2 fold change [7],log2 fold change [8],log2 fold change [9],log2 fold change [10]
U2SURP (UniProt O15042),inactive: -0.032,inactive: -0.051,inactive: -0.029,inactive: -0.136,inactive: 0.159,inactive: 0.13,inactive: 0.117,inactive: -0.002,inactive: -0.032,inactive: -0.116
TUFM (UniProt P49411),inactive: 0.092,inactive: -0.018,inactive: -0.106,inactive: -0.048,inactive: 0.002,inactive: 0.034,inactive: 0.084,inactive: -0.105,inactive: -0.143,inactive: -0.01
TXN (UniProt P10599),inactive: -0.022,inactive: 0.008,inactive: 0.03,inactive: 0.057,inactive: -0.021,inactive: -0.052,inactive: -0.013,inactive: -0.022,inactive: 0.003,inactive: 0.038
TWF2 (UniProt Q6IBS0),inactive: 0.028,inactive: -0.029,inactive: -0.13,inactive: -0.026,inactive: 0,inactive: 0.009,inactive: 0.005,inactive: 0.028,inactive: -0.015,inactive: -0.02
TYMS (UniProt P04818),inactive: -0.069,inactive: 0.015,inactive: -0.032,inactive: 0.084,inactive: -0.021,inactive: 0.045,inactive: 0.025,inactive: -0.003,inactive: 0.008,inactive: 0.002
TTC38 (UniProt Q5R3I4),inactive: 0.038,inactive: 0.113,inactive: -0.263,inactive: -0.09,inactive: 0.111,active: 0.459,inactive: -0.243,inactive: -0.156,inactive: 0.042,inactive: 0.313
UBE2G1 (UniProt P62253),inactive: 0,inactive: -0.046,inactive: -0.062,inactive: -0.001,inactive: 0,inactive: -0.132,inactive: 0.051,inactive: -0.047,inactive: 0.001,inactive: 0.008
UBE2V2 (UniProt Q15819),inactive: -0.03,inactive: -0.026,inactive: -0.026,inactive: 0.024,inactive: 0,inactive: -0.008,inactive: 0.052,inactive: -0.051,inactive: -0.041,inactive: -0.046
UBE2K (UniProt P61086),inactive: -0.007,inactive: 0.034,inactive: -0.03,inactive: 0.001,inactive: -0.006,inactive: 0.007,inactive: 0.076,inactive: 0.01,inactive: 0.017,inactive: 0.001
TUBB1 (UniProt Q9H4B7),inactive: 0.005,inactive: 0.092,inactive: -0.007,inactive: 0.089,inactive: -0.015,inactive: 0.03,inactive: 0.008,inactive: -0.102,inactive: -0.011,inactive: -0.037
UBE2Z (UniProt Q9H832),inactive: 0.003,inactive: -0.028,inactive: -0.062,inactive: -0.01,inactive: -0.006,inactive: 0,inactive: 0.036,inactive: 0.008,inactive: -0.035,inactive: -0.001
TSSC4 (UniProt Q9Y5U2),inactive: 0.035,inactive: 0.02,inactive: 0.072,inactive: 0.09,inactive: -0.022,inactive: 0.084,inactive: -0.059,inactive: 0.074,inactive: 0.114,inactive: -0.003
TTC1 (UniProt Q99614),inactive: -0.036,inactive: -0.026,inactive: 0.037,inactive: 0.037,inactive: -0.066,inactive: -0.047,inactive: -0.031,inactive: 0.008,inactive: -0.073,inactive: 0.015
UBAP2L isoform 5 (UniProt Q14157),inactive: 0.017,inactive: -0.004,inactive: -0.013,inactive: 0.001,inactive: -0.016,inactive: -0.016,inactive: 0.013,inactive: -0.007,inactive: -0.029,inactive: 0.023
TSR2 (UniProt Q969E8),inactive: -0.221,inactive: 0.047,inactive: -0.042,inactive: 0.148,inactive: -0.047,inactive: -0.158,inactive: 0.105,inactive: -0.005,inactive: -0.115,inactive: 0.15
TXNDC11 (UniProt Q6PKC3),inactive: -0.083,inactive: 0.075,inactive: -0.067,inactive: 0.11,inactive: -0.018,inactive: -0.031,inactive: 0.051,inactive: -0.002,inactive: 0.112,inactive: -0.003
TUBA4A (UniProt P68366),inactive: 0.004,inactive: -0.02,inactive: -0.063,inactive: 0.028,inactive: -0.024,inactive: 0.062,inactive: 0.031,inactive: -0.065,inactive: -0.059,inactive: 0.009
TTF2 (UniProt Q9UNY4),inactive: -0.017,inactive: 0.112,inactive: -0.097,inactive: -0.017,inactive: -0.035,inactive: 0.15,inactive: -0.011,inactive: 0.117,inactive: -0.084,inactive: -0.045
TUBA1B (UniProt P68363),inactive: -0.005,inactive: 0.005,inactive: -0.041,inactive: 0,inactive: -0.012,inactive: 0.028,inactive: 0.022,inactive: -0.04,inactive: 0.003,inactive: -0.023
TUBB3 (UniProt Q13509),inactive: 0.015,inactive: 0.108,inactive: -0.037,inactive: 0.079,inactive: -0.04,inactive: 0.018,inactive: 0.063,inactive: -0.06,inactive: -0.017,inactive: -0.019
UBE2I (UniProt P63279),inactive: -0.048,inactive: -0.035,inactive: -0.027,inactive: -0.047,inactive: 0.024,inactive: 0.032,inactive: 0.027,inactive: -0.032,inactive: -0.046,inactive: 0.024
UBE2M (UniProt P61081),inactive: -0.046,inactive: -0.038,inactive: -0.089,inactive: -0.055,inactive: 0.024,inactive: 0.005,inactive: 0.07,inactive: -0.003,inactive: -0.07,inactive: -0.004
TTC33 (UniProt Q6PID6),inactive: -0.1,inactive: -0.158,inactive: -0.197,inactive: -0.133,inactive: -0.123,inactive: -0.072,inactive: -0.038,inactive: 0.151,inactive: -0.08,inactive: 0.003
UBE2N (UniProt P61088),inactive: -0.071,inactive: -0.052,inactive: -0.045,inactive: -0.02,inactive: 0.093,inactive: -0.072,inactive: 0.01,inactive: 0.013,inactive: -0.135,inactive: -0.034
UAP1L1 (UniProt Q3KQV9),inactive: 0.014,inactive: -0.025,inactive: -0.107,inactive: -0.074,inactive: 0.019,inactive: 0.02,inactive: -0.002,inactive: -0.026,inactive: -0.048,inactive: -0.007
UBE3A (UniProt Q05086),inactive: -0.006,inactive: -0.001,inactive: -0.065,inactive: 0,inactive: -0.009,inactive: 0.03,inactive: 0.034,inactive: -0.009,inactive: -0.028,inactive: -0.023
TSR3 (UniProt Q9UJK0),inactive: -0.006,inactive: 0.095,inactive: 0.056,inactive: 0.009,inactive: -0.076,inactive: 0.028,inactive: -0.011,inactive: -0.04,inactive: 0.048,inactive: -0.135
TXNIP (UniProt Q9H3M7),inactive: 0.091,inactive: -0.024,inactive: 0.19,inactive: 0.007,inactive: -0.009,inactive: 0.018,inactive: 0.071,inactive: 0.115,inactive: -0.079,inactive: 0.005
TSPO (UniProt P30536),inactive: -0.035,inactive: -0.091,inactive: -0.102,inactive: -0.023,inactive: 0.026,inactive: -0.026,inactive: 0.041,inactive: 0.025,inactive: -0.008,inactive: -0.095
TUBG1 (UniProt P23258),inactive: -0.014,inactive: 0.014,inactive: 0.009,inactive: 0.035,inactive: -0.01,inactive: 0,inactive: -0.053,inactive: -0.013,inactive: 0.032,inactive: -0.06

# Full records, quoted from the list. Order of values: log2 fold change [1] | log2 fold change [2] | log2 fold change [3] | log2 fold change [4] | log2 fold change [5] | log2 fold change [6] | log2 fold change [7] | log2 fold change [8] | log2 fold change [9] | log2 fold change [10]
# UBE2I (UniProt P63279) is entered as inactive: -0.048 | inactive: -0.035 | inactive: -0.027 | inactive: -0.047 | inactive: 0.024 | inactive: 0.032 | inactive: 0.027 | inactive: -0.032 | inactive: -0.046 | inactive: 0.024
# TTF2 (UniProt Q9UNY4) is entered as inactive: -0.017 | inactive: 0.112 | inactive: -0.097 | inactive: -0.017 | inactive: -0.035 | inactive: 0.15 | inactive: -0.011 | inactive: 0.117 | inactive: -0.084 | inactive: -0.045
